PubChem BioAssay AID1671195 – Yale University – 2021
The whole screen tested about 22,000 reagents; this is a random part of them. About 1,510 of them (6.9%) were called active. 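Active includes knockdowns raising or lowering LDL uptake; positive z-scores mean more uptake, negative mean less.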

Aim: 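Regulators of LDL receptor activity judged by labelled LDL uptake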 (primary screen)
Cell system: human Huh7 hepatoma cells
Reagent: siRNA pool against human genes, 18 nM
Time to read-out: about 2 to 2.5 days of knockdown, then 8 h LDL uptake
Challenge: DiI-labelled LDL at 30 µg/ml for 8 h, in lipoprotein-deficient serum medium
Measurement: 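Fluorescent LDL signal imaged in cells, scaled to the plate median, robust z-score for each replicate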
Reading the numbers: robust z-score: higher = more LDL uptake after knockdown
Call rule: 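a gene counts as active if at least two replicate z-scores exceed ±2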

How did the screen score CREB3L4?
robust z-score, replicate 1: -0.715; robust z-score, replicate 2: -0.858; robust z-score, replicate 3: -1.25; call: inactive

How did the screen score MAP3K15?
robust z-score, replicate 1: -0.222; robust z-score, replicate 2: 0.381; robust z-score, replicate 3: 0.937; call: inactive

Which result is listed for RPL32P20?
robust z-score, replicate 1: -1.44; robust z-score, replicate 2: -0.26; robust z-score, replicate 3: -0.0752; call: inactive

With PTCD1, how do the results read?
robust z-score, replicate 1: 1.2; robust z-score, replicate 2: 1.24; robust z-score, replicate 3: 1.17; call: inactive

What did the screen give for EXOSC7?
robust z-score, replicate 1: 2.24; robust z-score, replicate 2: 3.13; robust z-score, replicate 3: 1.15; call: active

Which result is listed for DOK1?
robust z-score, replicate 1: 1.54; robust z-score, replicate 2: 0.363; robust z-score, replicate 3: 1.17; call: inactive

For FXYD3, what does the deposit list?
robust z-score, replicate 1: -1.06; robust z-score, replicate 2: -0.0615; robust z-score, replicate 3: -1.68; call: inactive

What did the screen give for CA4?
robust z-score, replicate 1: -1.55; robust z-score, replicate 2: -1.18; robust z-score, replicate 3: -1.83; call: inactive

Which result is listed for ZMYM6?
robust z-score, replicate 1: -0.506; robust z-score, replicate 2: -1.35; robust z-score, replicate 3: -0.611; call: inactive

What is on record for CYP1A2?
robust z-score, replicate 1: 0.806; robust z-score, replicate 2: -0.206; robust z-score, replicate 3: 0.66; call: inactive

4 entries from above, limited to “robust z-score, replicate 3”.
FXYD3	-1.68
CA4	-1.83
ZMYM6	-0.611
CYP1A2	0.66

Further results:
What did the screen give for HCFC1?
robust z-score, replicate 1: 1.87; robust z-score, replicate 2: 1.23; robust z-score, replicate 3: 0.548; call: inactive

What did the screen give for YPLR6490 (retired record)?
robust z-score, replicate 1: -0.908; robust z-score, replicate 2: -0.936; robust z-score, replicate 3: -0.823; call: inactive

With PSMG2, what was measured?
robust z-score, replicate 1: -1.23; robust z-score, replicate 2: -0.919; robust z-score, replicate 3: -1.95; call: inactive

What did the screen give for CSF1R?
robust z-score, replicate 1: -0.226; robust z-score, replicate 2: -0.636; robust z-score, replicate 3: -0.442; call: inactive

Which result is listed for GDF15?
robust z-score, replicate 1: -0.324; robust z-score, replicate 2: 1.41; robust z-score, replicate 3: 0.529; call: inactive

Which result is listed for LOC441365 (retired record)?
robust z-score, replicate 1: 1.12; robust z-score, replicate 2: 1.02; robust z-score, replicate 3: 1.51; call: inactive

What did the screen give for EMG1?
robust z-score, replicate 1: -0.295; robust z-score, replicate 2: 2.6; robust z-score, replicate 3: 0.719; call: inactive

For DSG4, what does the deposit list?
robust z-score, replicate 1: 0.0427; robust z-score, replicate 2: 0.184; robust z-score, replicate 3: 0.193; call: inactive

Which result is listed for VKORC1L1?
robust z-score, replicate 1: 2.19; robust z-score, replicate 2: 2.69; robust z-score, replicate 3: 1.9; call: active

Which result is listed for RPS15P3?
robust z-score, replicate 1: 3.18; robust z-score, replicate 2: 2.25; robust z-score, replicate 3: 2; call: active

How did the screen score SCARB1?
robust z-score, replicate 1: -1.13; robust z-score, replicate 2: -0.513; robust z-score, replicate 3: -0.695; call: inactive

For COX5B, how do the results read?
robust z-score, replicate 1: 0.162; robust z-score, replicate 2: 0.142; robust z-score, replicate 3: 0.194; call: inactive

What is on record for SUCLA2?
robust z-score, replicate 1: 0.0297; robust z-score, replicate 2: 0.122; robust z-score, replicate 3: -0.814; call: inactive

With TMEM174, how do the results read?
robust z-score, replicate 1: 1.02; robust z-score, replicate 2: 0.967; robust z-score, replicate 3: 1.37; call: inactive
